Data taken from publication PMC5934406.

By UniProt entry, the sequences of proteins in these tests, tags left out.
UniProt Q00613: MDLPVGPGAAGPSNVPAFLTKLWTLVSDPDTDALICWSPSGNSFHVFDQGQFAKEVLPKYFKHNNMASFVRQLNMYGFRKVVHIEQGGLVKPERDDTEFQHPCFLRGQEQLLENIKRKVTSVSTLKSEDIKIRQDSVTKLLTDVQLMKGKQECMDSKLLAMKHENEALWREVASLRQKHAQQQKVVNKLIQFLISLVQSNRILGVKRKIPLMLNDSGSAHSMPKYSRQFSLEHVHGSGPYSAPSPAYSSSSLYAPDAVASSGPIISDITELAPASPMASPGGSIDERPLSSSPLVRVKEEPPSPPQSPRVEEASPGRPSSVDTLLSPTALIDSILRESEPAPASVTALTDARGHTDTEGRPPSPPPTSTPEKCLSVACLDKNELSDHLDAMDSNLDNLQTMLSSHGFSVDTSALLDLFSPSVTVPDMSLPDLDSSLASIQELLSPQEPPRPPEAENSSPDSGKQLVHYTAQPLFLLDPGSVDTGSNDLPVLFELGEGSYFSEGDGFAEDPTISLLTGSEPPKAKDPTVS

Molecular target: FLAG-HSF1 DEL183–214 (human) (UniProt Q00613)
Experiment: co-IP; HEK293 co-transfected with WT HA-HSF1 and FLAG-HSF1 constructs; anti-FLAG IP, HA WB

binding: no binding
Substance: HA-HSF1 (wild type Heat shock factor 1) (from UniProt Q00613 1-529)

Results are given in words; binding and its absence hold for the method and conditions named. In cells and extracts the contact can be indirect.
